Here are results for six molecules from patent US20160376333A1.

Chains of the proteins cited; added tags and fusions are not shown. Lines headed by an entry give the natural chain unless they say otherwise; changes in a name come on top.
UniProt P10415: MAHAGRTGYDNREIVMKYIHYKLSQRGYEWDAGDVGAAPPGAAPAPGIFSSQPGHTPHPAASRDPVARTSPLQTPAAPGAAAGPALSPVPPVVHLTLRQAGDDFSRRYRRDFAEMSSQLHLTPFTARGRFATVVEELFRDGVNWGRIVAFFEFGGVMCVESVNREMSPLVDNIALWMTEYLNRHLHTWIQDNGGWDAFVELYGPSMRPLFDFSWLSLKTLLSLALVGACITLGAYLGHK
UniProt Q07817: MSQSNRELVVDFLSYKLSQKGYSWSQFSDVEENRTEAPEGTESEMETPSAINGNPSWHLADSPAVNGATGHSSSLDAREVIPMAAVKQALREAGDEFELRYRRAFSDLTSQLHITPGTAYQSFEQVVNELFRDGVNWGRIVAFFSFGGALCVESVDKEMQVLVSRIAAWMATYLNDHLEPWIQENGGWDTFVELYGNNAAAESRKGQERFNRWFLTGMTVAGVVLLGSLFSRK

Assay [1] has as its target T1, human Bcl-w a.a. 1-182 with C-terminal avi-6his tag (human) (UniProt Q92843).
T1 sequence: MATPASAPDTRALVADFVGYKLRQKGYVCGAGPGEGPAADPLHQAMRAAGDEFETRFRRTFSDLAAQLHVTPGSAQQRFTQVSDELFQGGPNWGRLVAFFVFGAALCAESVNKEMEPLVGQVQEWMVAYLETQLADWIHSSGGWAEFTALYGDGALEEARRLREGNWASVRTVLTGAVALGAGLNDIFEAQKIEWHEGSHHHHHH
Kind of assay: initial BLI screening (column 'Binds target?').

Assay [2] deals with human Bcl-2 a.a. 1-207 with C-terminal avi-6his tag (human) (UniProt P10415). In words: initial BLI screening (column 'Binds target?').
The target is the same in assay [3]. Kind of assay: BLI. (In BLI a coated tip is dipped into the sample, and binding shifts an interference pattern.)
Assay [4] deals with human Bcl-XL a.a. 1-205 with C-terminal avi-6his tag (human) (UniProt Q07817). Kind of assay: initial BLI screening (column 'Binds target?').
The target in assay [5] is T2, human Bfl-1 a.a. 1-153 (C4S) with C-terminal avi-6his tag (human).
T2 sequence: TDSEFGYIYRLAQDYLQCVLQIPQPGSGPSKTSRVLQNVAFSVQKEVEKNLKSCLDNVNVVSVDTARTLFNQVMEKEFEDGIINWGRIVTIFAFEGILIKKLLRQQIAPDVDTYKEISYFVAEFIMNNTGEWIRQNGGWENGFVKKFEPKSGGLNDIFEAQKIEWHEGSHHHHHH
In words: initial BLI screening (column 'Binds target?').

The target in assay [6] is T3, human Bcl-B a.a. 11-175 with C-terminal avi-6his tag (human).
T3 sequence: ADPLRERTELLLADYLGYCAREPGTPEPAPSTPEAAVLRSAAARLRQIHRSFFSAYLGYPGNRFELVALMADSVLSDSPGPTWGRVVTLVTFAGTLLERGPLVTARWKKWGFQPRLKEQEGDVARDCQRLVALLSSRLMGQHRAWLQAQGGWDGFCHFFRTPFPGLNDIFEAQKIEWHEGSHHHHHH
In words: BLI at a single analyte concentration (50 nM, 600 s association, then buffer); biotinylated BCL2 protein on a streptavidin sensor.

Assay [7] concerns the target T2, human Bfl-1 a.a. 1-153 (C4S) with C-terminal avi-6his tag (human). The assay is described as above.
Assay [8] has as its target T3, human Bcl-B a.a. 11-175 with C-terminal avi-6his tag (human). In words: initial BLI screening (column 'Binds target?').

Results are given in words; binding and its absence hold for the method and conditions named. Some results given as binding are weak or reduced against the parent protein; the word gives no strength. For some assays here: Where a sequence is shown, tags or fusion partners need not be part of it.

B1: W-CDP03 (designed binder)
chain: DPKKVFDEAKDRAENNVRRLKQKLEELYKEARKKDLTQEEREKLKEKYKTAMAAAALAAIGDAFNALLKARKLHKNGQVNEQQLEELARRLQELAKEAFQKAKDYANEFEYKLEY
Take B1: in assay [1], the binding entry is “binds”.

B2: 2-CDP06 (designed binder)
chain: ADPKKVLDKAKDEAENRVRELKQKLEELYKEARKLDLTQEMRQELVDKARAASLQASGDIFYAILRALAEAEKLKKAGLVNSQQLDELKRRLEELAEEARRKAEKLGDEFRLKLEY
With B2, the binding result in assay [2] and in assay [3] was “binds” in each case.

B3: X-CDP07 (designed binder)
chain: ADPKKVLDKAKDRAENVVRKLKKELEELYKEARKLDLTQEMRDRIRLAAIAARIAAFGDIFHAIMEALEEARKLKKAGLVNSQQLDELKRRLEELDEEAAQRAEKLGKEFELKLEY
As for B3, the binding entry in assay [4] was “binds”.

B4: F-CDP01 (designed binder)
chain: ADPKKVLDKAKDQAENRVRELKQKLEELYKEARKLDLTQEMRKKLQYAAIGAMLAAIGDILNAIMQAKQEADKLKKAGLVNSQQLDELKRRLEELKEEALRKAHDYGSEFYLKLEY
Take B4: in assay [5], the binding result is reported as “binds”.

B5: M-CDP02 (designed binder)
chain: ADPKKVLDKAKDQAENRVRELKQELEELYKEARKLDLTQEERRKLEESYIAAMLRAIGDIFNAIMQAKNEADKLKKAGLVNSQQLDELRRRLEELRKEASLKAEDYGREFQEKLEY
As for B5, the binding result in assay [6] and in assay [7] was “binds” each time.

B6: 10-CDP01 (designed binder)
chain: ADPKKVLDKAKDQAENRVRELKQELERLYKEARKLDLTQEMRRKLEWRYIAAMLKAIGDILNAIAQAENEADKLKKAGLVNSQQLDELRRRLEELAKEAARKAHDYGREFQLKLEY
As to B6, the binding entry in assay [8] is “binds”.
